No constants are given. Whether binding was seen depends on the method and setting. Some entries that bind do so weakly or less than the wild type. For part of these data: Tags and fused reporters may be left off the sequences shown.

Amino acid sequences for entries named in this document (tags omitted). A change or cut given only in a name is not applied to a line headed by its entry. Chains listed by the source or under a name are the forms on record and can include a tag or linker. Residues count along the entry.
CARD1 as crystallised in the Ad12 knob-CARD1 complex (trypsin-treated) (P78310, residues 22-144): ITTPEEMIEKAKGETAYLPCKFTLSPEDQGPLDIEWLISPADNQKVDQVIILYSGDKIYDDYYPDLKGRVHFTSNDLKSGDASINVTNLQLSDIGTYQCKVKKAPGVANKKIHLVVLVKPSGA
his-tagged D1 (refolded amino-terminal IgV domain of human CAR) (P78310, form named): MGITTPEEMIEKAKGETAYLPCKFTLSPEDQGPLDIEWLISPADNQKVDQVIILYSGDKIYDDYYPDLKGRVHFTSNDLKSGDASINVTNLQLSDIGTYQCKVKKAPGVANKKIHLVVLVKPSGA

Results on two molecules are retold here after US20030027338A1 (BROOKHAVEN SCIENCE ASSOCIATES, published 2003).

Experiment [1] deals with his-tagged D1 (refolded amino-terminal IgV domain of human CAR) (human) (UniProt P78310). The experiment in a line: Superose 6 gel filtration of knob mixed with refolded D1. In general terms: SEC sorts molecules by how far they enter the pores of the column.
Experiment [2] has the same target. The experiment can be described thus: Ni-NTA pull-down with his-tagged D1, SDS-PAGE of bead eluate.
The target of experiment [3] is CARD1 as crystallised in the Ad12 knob-CARD1 complex (trypsin-treated) (human) (UniProt P78310). The experiment in a line: complex formed from trypsin-treated proteins, purified by anion exchange and crystallised.

B1: Ad12 knob (recombinant adenovirus type 12 fiber knob domain, his-tag removed by thrombin) (other)
chain: SNTPYDPLTLWTTPDPPPNCSLIQELDAKLTLCLTKNGSIVNGIVSLVGVKGNLLNIQSTTTTVGVHLVFDEQGRLITSTPTALVPQASWGYRQGQSVSTNTVTNGLGFMPNVSAYPRPNASEAKSQMVSLTYLQGDTSKPITMKVAFNGITSLNGYSLTFMWSGLSNYINQPFSTPSCSFSYITQE
notes: range 401-587; Expressed from pET15b in E. coli; The hexahistidine tag was cleaved with thrombin; Trimer by SDS-PAGE, STEM (60.6 kDa) and gel filtration; also called Ad12 fiber knob
On to B1, for which the binding result in experiment [1] and in experiment [2] was “binds” throughout.

B2: Ad12 knob as crystallised in the Ad12 knob-CARD1 complex (trypsin-treated) (protein)
chain: SNTPYDPLTLWTTPDPPPNCSLIQELDAKLTLCLTKNGSIVNGIVSLVGVKGNLLNIQSTTTTVGVHLVFDEQGRLITSTPTALVPQASWGYRQGQSVSTNTVTNGLGFMPNVSAYPRPNASEAKSQMVSLTYLQGDTSKPITMKVAFNGITSLNGYSLTFMWSGLSNYINQPFSTPSCSFSYITQE
Take B2: in experiment [3], the binding result was “binds”.
